The values that follow come from publication PMC7819943, “Rice protein-binding microarrays: a tool to detect cis-acting elements near promoter regions in rice”.

Sequences of proteins named here, by UniProt entry; tags and fusion partners are left off.
UniProt Q0JBA9, entry or part of it: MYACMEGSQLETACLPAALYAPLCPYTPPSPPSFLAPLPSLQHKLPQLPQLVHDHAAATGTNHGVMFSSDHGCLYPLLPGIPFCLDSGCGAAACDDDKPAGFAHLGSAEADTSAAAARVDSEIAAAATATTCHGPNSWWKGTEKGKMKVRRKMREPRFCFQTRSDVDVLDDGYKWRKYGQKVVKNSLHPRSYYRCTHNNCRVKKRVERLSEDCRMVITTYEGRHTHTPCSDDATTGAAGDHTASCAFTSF

This is one part of the list.

The target in the experiment is OsWRKY34 (Oryza sativa, UniProt Q0JBA9 1-250). Kind of experiment: protein-binding microarray (RPBM); PBS, 2% BSA, 51.3 ng/ul salmon testes DNA, 50 uM zinc acetate, 200 nM TF, 25 C, 1 h; high values mean tight binding. Conditions: protein: recombinant; tags: N-terminal polyhistidine and DsRed monomer fusion (pET32a); label: CyDye5-dUTP incorporated in the synthesized complementary strand; 3' TTTTT single-stranded linker to array surface; dsDNA, one strand shown. A digest of the protocol: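 Transcription factors, each fused N-terminally to a polyhistidine tag and DsRed, were expressed in E. coli BL21-CodonPlus and purified on Ni–NTA. A custom Agilent array was made double-stranded by primer extension with Cy5-dUTP and blocked with 2% BSA. It was incubated with 200 nM protein in PBS, 2% BSA, salmon testes DNA and 50 µM zinc acetate at 25 °C for 1 h, then washed. The binding signal is per-feature fluorescence intensity (arbitrary units) read on an Axon 4000B scanner.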
In the case of “GCGCCACCACCACCCGCGCCTTCGTCGCCGCCGTCCAACACGGAGTCACCTAGTGCAG”, the binding signal was 9230 fluorescence intensity (a.u.).

With “TTTGCTGCTACTCATTATTTTGACCGCTGATACATGATAACGGAGTCACCTAGTGCAG”, the binding signal is 8100 fluorescence intensity (a.u.).

Consider “CTACCCATGCCCGCTTTGCCCGTTTACCCGCGAAATCTAACGGAGTCACCTAGTGCAG”, for which the binding signal was 10100 fluorescence intensity (a.u.).

With “GGTTCTTGGCCGCTCTCGTGTTCGCCGTCTCCGTCTCCGCCGGAGTCACCTAGTGCAG”, the binding signal was 8530 fluorescence intensity (a.u.).

Consider “GAGGTTAGCTCGCCTCTGATTGGGTTGGTTGGGTGGTCGGCGGAGTCACCTAGTGCAG”, for which the binding signal is 10100 fluorescence intensity (a.u.).

Regarding “TAATCGCTTTTCATTCCTCCTTTGACCAGTATTTACCCTTCGGAGTCACCTAGTGCAG”, the binding signal is 9840 fluorescence intensity (a.u.).

Regarding “CTGCCACCGATCTTGTCTCTTCTCCGGCCGCCGGGCCGCCCGGAGTCACCTAGTGCAG”, the binding signal was 10800 fluorescence intensity (a.u.).

On to “ATTACAGCTTGTTCAGTTCTTTGTCTTGAATTCTTGATCACGGAGTCACCTAGTGCAG”, for which the binding signal was 9260 fluorescence intensity (a.u.).

On to “ACGTTATACTACAATGTTTTGGAAACTGTTTTCATTCCATCGGAGTCACCTAGTGCAG”, for which the binding signal was 8150 fluorescence intensity (a.u.).

As to “CATCTGGCCATCTCTCGAGACTCTCTCCCCTATTTCTTGACGGAGTCACCTAGTGCAG”, the binding signal was 8760 fluorescence intensity (a.u.).

Regarding “GCGGGGTCCCTATGTTCAATTGTACAGTATATTATCATATCGGAGTCACCTAGTGCAG”, the binding signal is 9630 fluorescence intensity (a.u.).

On to “TTACATATGGAATCTGTCATTTGTTTTGTTATTAGTCTACCGGAGTCACCTAGTGCAG”, for which the binding signal was 8660 fluorescence intensity (a.u.).

As for “AAAATCGGTCAGTAATATTTCCTCTTCGTTGTTGTTATTCCGGAGTCACCTAGTGCAG”, the binding signal was 9670 fluorescence intensity (a.u.).

“CGTACCCAAATCACGGAGATTGTCTGTTCTTTCTTTTTTTCGGAGTCACCTAGTGCAG”: the binding signal is 10800 fluorescence intensity (a.u.).

Consider “TGTCCAACATTTTATCTTTCTCGATTACTCGTACGAACAGCGGAGTCACCTAGTGCAG”, for which the binding signal was 8920 fluorescence intensity (a.u.).

For the sequence “TATATATATATATATATATATATATATAACACACACCGTGCGGAGTCACCTAGTGCAG”, the binding signal was 15200 fluorescence intensity (a.u.).

In the case of “TTCGCTTTTCATCCCCTTCGCGTCCGTTTCTTCCCTTTCTCGGAGTCACCTAGTGCAG”, the binding signal is 11700 fluorescence intensity (a.u.).

“ATGTGTTCTTTTACCCCTTTTCCAACTTCTACTTTTTATTCGGAGTCACCTAGTGCAG”: the binding signal is 8190 fluorescence intensity (a.u.).

As to “ACCGGCCATCTCTCAAGCGTTGACTTGATTAATTGCTTCTCGGAGTCACCTAGTGCAG”, the binding signal was 15700 fluorescence intensity (a.u.).

Regarding “GCGCCTTCTGGACTCTTCCTGACCCTTTTTTGGCGGGCGACGGAGTCACCTAGTGCAG”, the binding signal is 10100 fluorescence intensity (a.u.).

As to “CTTCGTTCGGGAGCGCGTTTTGATGCATTCATCCAGTGGTCGGAGTCACCTAGTGCAG”, the binding signal was 8170 fluorescence intensity (a.u.).

As for “TTCGTGGGCTTTTTTTCTCCCTCTTGATTGCGGCGCGACTCGGAGTCACCTAGTGCAG”, the binding signal is 11000 fluorescence intensity (a.u.).

On to “ACCTTGCTTGGGAATTAGAGTTGACTGCTAGTGCTGATGTCGGAGTCACCTAGTGCAG”, for which the binding signal was 8560 fluorescence intensity (a.u.).

As to “CCAAGCTTGTCGTGCCCGTATGTTCGCGTCCATCGTTGACCGGAGTCACCTAGTGCAG”, the binding signal was 19800 fluorescence intensity (a.u.).

Turning to “AATCTGTGTAATTGTTTTTTTTTCTGTCTACACTTAATACCGGAGTCACCTAGTGCAG”, the binding signal is 9020 fluorescence intensity (a.u.).

As for “TTCGCTGGCAATGGTTCTCTTCTCTGCATCCAGATCCATCCGGAGTCACCTAGTGCAG”, the binding signal is 8210 fluorescence intensity (a.u.).

Take “TTCAAACAAGATGAATAGTCAACGTTGGATATAAAAACCTCGGAGTCACCTAGTGCAG”: the binding signal was 11600 fluorescence intensity (a.u.).

As to “GCTTTGTCCTCTCTATCCGCGACGCCTAGTTCGTCAGTTCCGGAGTCACCTAGTGCAG”, the binding signal was 9170 fluorescence intensity (a.u.).

Turning to “AGAGAGATGGGGAGAGGCGGGGTGAGAGAGAAGCGCACGGCGGAGTCACCTAGTGCAG”, the binding signal was 8820 fluorescence intensity (a.u.).

For the sequence “AAAGTTGTTTTACACGTAACGTCAGCGCCCGATTTTTGAACGGAGTCACCTAGTGCAG”, the binding signal is 10200 fluorescence intensity (a.u.).

As for “CTCTCTTCTCCTCTCCCGCCGCCGCCGCCGCCGCACCCGCCGGAGTCACCTAGTGCAG”, the binding signal was 8700 fluorescence intensity (a.u.).

As to “CACACACACTCCACTACTCCACTGCACTGCAGTCTCTCTCCGGAGTCACCTAGTGCAG”, the binding signal was 10100 fluorescence intensity (a.u.).

For “AGATACATACCCACACCTTTTATTCAGCCTTATCTTTTTCCGGAGTCACCTAGTGCAG”, the binding signal is 8660 fluorescence intensity (a.u.).

For the sequence “AAATCCTGGGCCCGCTGTGTTCGTTGGTAGTTGTGATTCGCGGAGTCACCTAGTGCAG”, the binding signal was 8680 fluorescence intensity (a.u.).

As to “GTGTCGCCATATTTTTTTAAAAAAAGTTAGCATGTATTTACGGAGTCACCTAGTGCAG”, the binding signal was 9100 fluorescence intensity (a.u.).

In the case of “TAGTCTCCTCCAATCCCCGAATTGTTCATCGTCTGTCGTCCGGAGTCACCTAGTGCAG”, the binding signal is 10000 fluorescence intensity (a.u.).

As for “ATGGCTCTGCGCTCTCTTTCATCTTCTCTACGTGTCAGCTCGGAGTCACCTAGTGCAG”, the binding signal was 8100 fluorescence intensity (a.u.).

On to “GCAGCAGATAGGAACACATACAGGGAATTAAGCTTCTAGCCGGAGTCACCTAGTGCAG”, for which the binding signal is 8860 fluorescence intensity (a.u.).

Take “GGGTTACTTTCTCGCGTCACAAATTTTAGCCCTTCTTCTTCGGAGTCACCTAGTGCAG”: the binding signal is 8970 fluorescence intensity (a.u.).

On to “GGCCTAATACTCGCACGCACGCATTCCCATGCTGCCCACACGGAGTCACCTAGTGCAG”, for which the binding signal was 8300 fluorescence intensity (a.u.).

Regarding “GATGCCGAGAAAACCCCAATCGTTTACATGCCGGCGACTCCGGAGTCACCTAGTGCAG”, the binding signal is 9770 fluorescence intensity (a.u.).

Take “CAGGGTTTCTTGGGTTTTGATTAATTGTAAGTTTAACTATCGGAGTCACCTAGTGCAG”: the binding signal was 11100 fluorescence intensity (a.u.).
